Experiment [1] addresses T1, endogenous GCLC (human (endogenous in RCC cell lines)) (UniProt P48506).
T1 sequence: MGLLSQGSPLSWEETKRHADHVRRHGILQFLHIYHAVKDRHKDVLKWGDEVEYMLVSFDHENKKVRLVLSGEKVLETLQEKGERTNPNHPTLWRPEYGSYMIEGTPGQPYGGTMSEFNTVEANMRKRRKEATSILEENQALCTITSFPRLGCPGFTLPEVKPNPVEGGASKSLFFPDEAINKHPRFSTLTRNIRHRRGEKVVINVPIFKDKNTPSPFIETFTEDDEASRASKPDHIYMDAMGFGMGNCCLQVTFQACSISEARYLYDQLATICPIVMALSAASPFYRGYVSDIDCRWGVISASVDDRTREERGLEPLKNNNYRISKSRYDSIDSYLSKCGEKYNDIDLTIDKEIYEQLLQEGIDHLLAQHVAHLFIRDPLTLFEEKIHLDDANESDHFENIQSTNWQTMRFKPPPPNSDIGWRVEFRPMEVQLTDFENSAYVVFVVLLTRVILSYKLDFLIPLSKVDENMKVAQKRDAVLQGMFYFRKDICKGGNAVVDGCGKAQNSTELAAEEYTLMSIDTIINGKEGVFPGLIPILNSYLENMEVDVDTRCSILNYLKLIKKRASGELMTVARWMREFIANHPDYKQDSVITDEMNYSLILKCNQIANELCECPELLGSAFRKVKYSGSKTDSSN
As to the kind of experiment: co-IP; RCC cells with overexpression of CENPT; GCLM bound to GCLC compared.

Amino acid sequences for entries named in this document (tags omitted).
UniProt Q96BT3: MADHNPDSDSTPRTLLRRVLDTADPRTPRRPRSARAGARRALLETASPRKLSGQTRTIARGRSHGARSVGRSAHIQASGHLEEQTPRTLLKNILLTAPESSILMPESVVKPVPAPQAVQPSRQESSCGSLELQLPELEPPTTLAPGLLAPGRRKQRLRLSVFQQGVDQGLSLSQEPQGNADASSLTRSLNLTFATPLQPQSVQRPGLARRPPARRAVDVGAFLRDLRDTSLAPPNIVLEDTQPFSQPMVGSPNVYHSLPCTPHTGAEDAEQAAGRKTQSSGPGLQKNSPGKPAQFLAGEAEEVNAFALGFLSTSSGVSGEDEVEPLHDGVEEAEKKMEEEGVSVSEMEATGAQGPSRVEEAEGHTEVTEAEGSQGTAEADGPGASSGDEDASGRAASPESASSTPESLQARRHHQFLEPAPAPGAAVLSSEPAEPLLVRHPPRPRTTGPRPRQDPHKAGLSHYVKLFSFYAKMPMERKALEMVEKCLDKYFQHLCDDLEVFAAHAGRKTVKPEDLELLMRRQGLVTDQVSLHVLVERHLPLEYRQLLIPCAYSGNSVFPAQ

The target of experiment [2] is T2, Myc-GCLC middle fragment, amino acids 213-424 (UniProt P48506).
T2 sequence: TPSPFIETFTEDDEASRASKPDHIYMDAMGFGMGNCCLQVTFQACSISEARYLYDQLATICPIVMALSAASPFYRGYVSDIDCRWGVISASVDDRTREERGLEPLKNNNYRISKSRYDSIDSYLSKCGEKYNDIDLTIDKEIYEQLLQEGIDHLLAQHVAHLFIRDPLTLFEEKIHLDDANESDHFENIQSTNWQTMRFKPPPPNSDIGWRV
As to the kind of experiment: co-IP; Flag-tagged CENPT (full length or fragments) and Myc-tagged GCLC (full length or fragments) co-expressed in 293T cells; Co-IP and Western blot.

Experiment [3] has as its target T1, endogenous GCLC (human (endogenous in RCC cell lines)). As to the kind of experiment: co-IP; RCC cells with overexpression of CENPT; GCLM bound to GCLC compared. The source holds these as a separate data set.
Experiment [4] concerns the target Flag-tagged Centromere Protein T (CENPT), full length (UniProt Q96BT3). The experiment is described as follows: co-IP; Flag-tagged CENPT (full length or fragments) and Myc-tagged GCLC (full length or fragments) co-expressed in 293T cells; Co-IP and Western blot. A general note: A western blot detects proteins with antibodies after separation by electrophoresis.
Experiment [5] has as its target endogenous CENPT (human (endogenous in RCC cell lines)) (UniProt Q96BT3). As to the kind of experiment: co-IP; endogenous proteins in RCC cells; Co-IP and Western blot.
The target in another experiment is GST-CENPT (UniProt Q96BT3). The experiment is described as follows: pull-down; in vitro; GST-CENPT captured by glutathione-resin, HIS-GCLC probed by western blotting; the methods describe His-tagged bait on Ni-NTA beads and prey in cell lysates.

Read-outs that look alike come from different tables or passages of the source. These are yes or no findings as the source states them, for the method shown. In cells and extracts the contact can be indirect. Some results given as binding are weak or reduced against the parent protein; the word gives no strength. For part of these data: Tags and fused reporters may be left off the sequences shown.

With “CENPT overexpressed in RCC cells (from UniProt Q96BT3 1-561)”, the binding result in experiment [1] is listed as “binds”.
With “Flag-tagged Centromere Protein T (CENPT), full length (from UniProt Q96BT3 1-561)”, the binding result in experiment [2] is on record as “binds”.

B1: glutamate-cysteine ligase modifier subunit (GCLM) (protein, UniProt P48507 1-274)
chain: MGTDSRAAKALLARARTLHLQTGNLLNWGRLRKKCPSTHSEELHDCIQKTLNEWSSQINPDLVREFPDVLECTVSHAVEKINPDEREEMKVSAKLFIVESNSSSSTRSAVDMACSVLGVAQLDSVIIASPPIEDGVNLSLEHLQPYWEELENLVQSKKIVAIGTSDLDKTQLEQLYQWAQVKPNSNQVNLASCCVMPPDLTAFAKQFDIQLLTHNDPKELLSEASFQEALQESIPDIQAHEWVPLWLLRYSVIVKSRGIIKSKGYILQAKRRGS
B1: in experiment [3], the binding result is reported as “binds”.

B2: Myc-tagged gamma-glutamyl-cysteine ligase catalytic subunit (GCLC), full length (protein, UniProt P48506 1-637)
chain: MGLLSQGSPLSWEETKRHADHVRRHGILQFLHIYHAVKDRHKDVLKWGDEVEYMLVSFDHENKKVRLVLSGEKVLETLQEKGERTNPNHPTLWRPEYGSYMIEGTPGQPYGGTMSEFNTVEANMRKRRKEATSILEENQALCTITSFPRLGCPGFTLPEVKPNPVEGGASKSLFFPDEAINKHPRFSTLTRNIRHRRGEKVVINVPIFKDKNTPSPFIETFTEDDEASRASKPDHIYMDAMGFGMGNCCLQVTFQACSISEARYLYDQLATICPIVMALSAASPFYRGYVSDIDCRWGVISASVDDRTREERGLEPLKNNNYRISKSRYDSIDSYLSKCGEKYNDIDLTIDKEIYEQLLQEGIDHLLAQHVAHLFIRDPLTLFEEKIHLDDANESDHFENIQSTNWQTMRFKPPPPNSDIGWRVEFRPMEVQLTDFENSAYVVFVVLLTRVILSYKLDFLIPLSKVDENMKVAQKRDAVLQGMFYFRKDICKGGNAVVDGCGKAQNSTELAAEEYTLMSIDTIINGKEGVFPGLIPILNSYLENMEVDVDTRCSILNYLKLIKKRASGELMTVARWMREFIANHPDYKQDSVITDEMNYSLILKCNQIANELCECPELLGSAFRKVKYSGSKTDSSN
Consider B2, for which the binding entry in experiment [4] is “binds”.

B3: endogenous GCLC (protein, UniProt P48506 1-637)
chain: MGLLSQGSPLSWEETKRHADHVRRHGILQFLHIYHAVKDRHKDVLKWGDEVEYMLVSFDHENKKVRLVLSGEKVLETLQEKGERTNPNHPTLWRPEYGSYMIEGTPGQPYGGTMSEFNTVEANMRKRRKEATSILEENQALCTITSFPRLGCPGFTLPEVKPNPVEGGASKSLFFPDEAINKHPRFSTLTRNIRHRRGEKVVINVPIFKDKNTPSPFIETFTEDDEASRASKPDHIYMDAMGFGMGNCCLQVTFQACSISEARYLYDQLATICPIVMALSAASPFYRGYVSDIDCRWGVISASVDDRTREERGLEPLKNNNYRISKSRYDSIDSYLSKCGEKYNDIDLTIDKEIYEQLLQEGIDHLLAQHVAHLFIRDPLTLFEEKIHLDDANESDHFENIQSTNWQTMRFKPPPPNSDIGWRVEFRPMEVQLTDFENSAYVVFVVLLTRVILSYKLDFLIPLSKVDENMKVAQKRDAVLQGMFYFRKDICKGGNAVVDGCGKAQNSTELAAEEYTLMSIDTIINGKEGVFPGLIPILNSYLENMEVDVDTRCSILNYLKLIKKRASGELMTVARWMREFIANHPDYKQDSVITDEMNYSLILKCNQIANELCECPELLGSAFRKVKYSGSKTDSSN
Take B3: the binding result in experiment [5] was “binds”.

B4: HIS-GCLC (protein, UniProt P48506 1-637)
chain: MGLLSQGSPLSWEETKRHADHVRRHGILQFLHIYHAVKDRHKDVLKWGDEVEYMLVSFDHENKKVRLVLSGEKVLETLQEKGERTNPNHPTLWRPEYGSYMIEGTPGQPYGGTMSEFNTVEANMRKRRKEATSILEENQALCTITSFPRLGCPGFTLPEVKPNPVEGGASKSLFFPDEAINKHPRFSTLTRNIRHRRGEKVVINVPIFKDKNTPSPFIETFTEDDEASRASKPDHIYMDAMGFGMGNCCLQVTFQACSISEARYLYDQLATICPIVMALSAASPFYRGYVSDIDCRWGVISASVDDRTREERGLEPLKNNNYRISKSRYDSIDSYLSKCGEKYNDIDLTIDKEIYEQLLQEGIDHLLAQHVAHLFIRDPLTLFEEKIHLDDANESDHFENIQSTNWQTMRFKPPPPNSDIGWRVEFRPMEVQLTDFENSAYVVFVVLLTRVILSYKLDFLIPLSKVDENMKVAQKRDAVLQGMFYFRKDICKGGNAVVDGCGKAQNSTELAAEEYTLMSIDTIINGKEGVFPGLIPILNSYLENMEVDVDTRCSILNYLKLIKKRASGELMTVARWMREFIANHPDYKQDSVITDEMNYSLILKCNQIANELCECPELLGSAFRKVKYSGSKTDSSN
With B4, in the experiment with GST-CENPT, the binding result was “binds”.
